According to publication doi:10.1101/2024.02.27.582366:
Like-named read-outs stand apart in the source and are kept apart here. These are yes or no findings as the source states them, for the method shown. In cells and extracts the contact can be indirect. These calls come from enrichment with a bait or labelling near it, and not all partners need be listed. Sequences can lack the tags named with a protein.

By UniProt entry, the sequences of proteins in these tests, tags left out.
UniProt P84096: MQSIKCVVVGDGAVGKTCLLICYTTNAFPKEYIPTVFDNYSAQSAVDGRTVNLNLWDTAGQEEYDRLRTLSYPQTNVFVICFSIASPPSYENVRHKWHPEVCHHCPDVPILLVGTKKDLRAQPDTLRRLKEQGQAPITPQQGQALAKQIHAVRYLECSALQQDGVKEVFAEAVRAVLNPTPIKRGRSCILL
UniProt P43006: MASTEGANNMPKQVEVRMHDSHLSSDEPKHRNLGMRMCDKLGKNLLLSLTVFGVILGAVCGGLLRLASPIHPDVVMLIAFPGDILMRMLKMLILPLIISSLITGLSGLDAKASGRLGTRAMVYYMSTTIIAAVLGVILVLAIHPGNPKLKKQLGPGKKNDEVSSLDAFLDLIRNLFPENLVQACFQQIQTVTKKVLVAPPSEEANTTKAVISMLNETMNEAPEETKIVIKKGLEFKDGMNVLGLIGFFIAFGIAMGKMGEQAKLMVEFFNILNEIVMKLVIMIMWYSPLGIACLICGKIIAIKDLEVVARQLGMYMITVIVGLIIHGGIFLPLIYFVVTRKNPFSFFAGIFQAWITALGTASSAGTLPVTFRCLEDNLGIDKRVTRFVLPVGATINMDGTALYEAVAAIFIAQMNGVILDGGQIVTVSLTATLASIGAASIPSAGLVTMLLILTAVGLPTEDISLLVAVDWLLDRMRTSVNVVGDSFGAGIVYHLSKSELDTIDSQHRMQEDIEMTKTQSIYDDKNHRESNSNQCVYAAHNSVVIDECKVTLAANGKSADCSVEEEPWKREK
UniProt P62746: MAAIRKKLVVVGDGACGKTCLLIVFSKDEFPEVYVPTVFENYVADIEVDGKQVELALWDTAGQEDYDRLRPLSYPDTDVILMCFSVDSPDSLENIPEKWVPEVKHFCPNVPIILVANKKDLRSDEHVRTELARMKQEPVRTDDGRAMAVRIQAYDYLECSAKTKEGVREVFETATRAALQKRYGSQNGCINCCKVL

T1: Flag-tagged human Thioredoxin1 Cys35Ser mutant (flag-hTrx1C35S) (human) (UniProt P10599)
T1 sequence: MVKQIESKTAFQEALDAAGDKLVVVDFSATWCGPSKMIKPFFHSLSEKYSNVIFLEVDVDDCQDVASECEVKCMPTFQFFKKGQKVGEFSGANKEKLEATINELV

B1: electrogenic sodium bicarbonate cotransporter 1 (SLC4A4) (protein, UniProt O88343 1-1079)
chain: MEDEAVLDRGASFLKHVCDEEEVEGHHTIYIGVHVPKSYRRRRRHKRKAGHKEKKEKERISENYSDKSDVENADESSSSILKPLISPAAERIRFILGEEDDSPAPPQLFTELDELLAVDGQEMEWKETARWIKFEEKVEQGGERWSKPHVATLSLHSLFELRTCMEKGSIMLDREASSLPQLVEMIADHQIETGLLKPDLKDKVTYTLLRKHRHQTKKSNLRSLADIGKTVSSASRMFSNPDNGSPAMTHRNLTSSSLNDISDKPEKDQLKNKFMKKLPRDAEASNVLVGEVDFLDTPFIAFVRLQQAVMLGALTEVPVPTRFLFILLGPKGKAKSYHEIGRAIATLMSDEVFHDIAYKAKDRHDLIAGIDEFLDEVIVLPPGEWDPTIRIEPPKSLPSSDKRKNMYSGGENVQMNGDTPHDGGHGGGGHGDCEELQRTGRFCGGLIKDIKRKAPFFASDFYDALNIQALSAILFIYLATVTNAITFGGLLGDATDNMQGVLESFLGTAVSGAIFCLFAGQPLTILSSTGPVLVFERLLFNFSKDHNFDYLEFRLWIGLWSAFMCLVLVATDASFLVQYFTRFTEEGFSSLISFIFIYDAFKKMIKLADYYPINSDFKVGYNTHFSCACLPPDPVNLSVSNDTTLAPEDLPTISSTDMYHNVTFDWAYLSKKECVKYGGKLVGNNCDFVPDITLMSFILFLGTYTSSMAMKKFKTSRYFPTTARKLISDFAIILSILIFCVIDALVGVDTPKLIVPSEFKPTSPNRGWFVPPFGGNPWWVCLAAAIPALLVTILIFMDQQITAVIVNRKEHKLKKGAGYHLDLFWVAILMVVCSFMALPWYVAATVISIAHIDSLKMETETSAPGEQPKFLGVREQRVTGTLVFILTGLSVFMAPILKFIPMPVLYGVFLYMGVASLNGVQFMDRLKLLLMPLKHQPDFIYLRHVPLRRVHLFTFLQVLCLALLWILKSTVAAIIFPVMILALVAVRKGMDYLFSQHDLSFLDDVIPEKDKKKKEDEKKKKKKKGSLDSDNDDSDCPYSEKVPSIKIPMDIMEQQPFLSDNKPLDRERSSTFLERHTSC
B2: Alpha-internexin (INA) (protein, UniProt P46660 1-501)
chain: MSFGSEHYLCSASSYRKVFGDSSRLSARLSGPGGSGSFRSQSLSRSNVASTAACSSASSLGLGLAYRRLPASDGLDLSQAAARTNEYKIIRTNEKEQLQGLNDRFAVFIEKVHQLETQNRALEAELAALRQRHAEPSRVGELFQRELRELRAQLEEASSARAQALLERDGLAEEVQRLRARCEEESRGREGAERALKAQQRDVDGATLARLDLEKKVESLLDELAFVRQVHDEEVAELLATLQASSQAAAEVDVAVAKPDLTSALREIRAQYESLAAKNLQSAEEWYKSKFANLNEQAARSTEAIRASREEIHEYRRQLQARTIEIEGLRGANESLERQILELEERHSAEVAGYQDSIGQLESDLRNTKSEMARHLREYQDLLNVKMALDIEIAAYRKLLEGEETRFSTGGLSISGLNPLPNPSYLLPPRILSSTASKVSSAGLSLKKEEEEEEEEASKEVSKKTSKVGEGFEETLGEAVISTKKTGKSATEESTSSSQKM

Assays:
[1] = molecular target: T1, Flag-tagged human Thioredoxin1 Cys35Ser mutant (flag-hTrx1C35S) (human); assay: affinity purification with mass spectrometry
[2] = molecular target: T1, Flag-tagged human Thioredoxin1 Cys35Ser mutant (flag-hTrx1C35S) (human); assay: affinity purification with mass spectrometry; remark: listed apart in the source

| Molecule | binding [1] | binding [2] |
| --- | --- | --- |
| RhoG (from UniProt P84096 1-191) | binds | – |
| excitatory amino acid transporter 2 (SLC1A2) (from UniProt P43006 1-572) | binds | – |
| RhoB (from UniProt P62746 1-196) | binds | – |
| F-actin-capping protein subunit beta (CAPZB) (from UniProt P47757 1-277) | binds | – |
| Synapsin-1 (SYN1) (from UniProt O88935 1-706) | binds | – |
| B1 | – | binds |
| B2 | – | binds |
